{"source": "PubChem BioAssay AID504764 (Drosophila RNAi Screening Center, 2011)", "screen": "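Knock-downs that raise or lower a Notch target reporter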 (primary screen)", "system": "Drosophila Kc167 cells", "reagents": "long dsRNA against Drosophila genes", "duration": "about 5 days (4 days dsRNA, then 24 h after transfection)", "challenge": "transfection of constitutively active membrane-tethered Notch lacking the extracellular domain, read 24 h later", "read-out": "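Firefly luciferase from an E(spl)m3 reporter with active Notch, plus control-promoter and uninduced reporter wells for normalisation; unnormalised counts, duplicate wells a and b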", "reading the numbers": "induced reporter light, run 1, well a and induced reporter light, run 1, well b: higher = more light from the Notch target reporter with active Notch; control promoter light, run 1, well a and control promoter light, run 1, well b: higher = more light from the viral control promoter (cell number, transfection, viability); uninduced reporter light, run 1, well a: higher = more light from the Notch target reporter without active Notch", "active means": "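Wells with low control signal or poorly matching duplicates excluded; duplicates averaged; per source plate, z beyond ±2 for induced/control log2 ratio or beyond ±1.8 for induced/uninduced marks a hit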", "calls": "active = modifier hit (raised or lowered Notch signal); inactive = not a hit", "note": "In all, the deposit lists about 22,000 reagents; this is an unselected part of those with a known target gene and a result. Of all reagents, 403 (1.9%) were called active. 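Unnormalised raw counts per well; ratio z-scores behind the hit calls and whether each hit raises or lowers signal are not deposited.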 Not given: the amount of reagent."}
{"gene": "ash2 (GeneID 42936)", "dsRNA": "DRSC16902", "induced reporter light, run 1, well a": 1.80e5, "induced reporter light, run 1, well b": 1.80e5, "control promoter light, run 1, well a": 1.78e5, "control promoter light, run 1, well b": 1.63e5, "uninduced reporter light, run 1, well a": 16770, "activity call": "inactive"}
{"gene": "Camp (GeneID 36948)", "dsRNA": "DRSC07004", "induced reporter light, run 1, well a": 1.70e5, "induced reporter light, run 1, well b": 1.12e5, "control promoter light, run 1, well a": 1.45e5, "control promoter light, run 1, well b": 1.77e5, "uninduced reporter light, run 1, well a": 10232, "activity call": "inactive"}
{"gene": "Pex12 (GeneID 33256)", "dsRNA": "DRSC00622", "induced reporter light, run 1, well a": 1.28e5, "induced reporter light, run 1, well b": 1.05e5, "control promoter light, run 1, well a": 1.38e5, "control promoter light, run 1, well b": 68815, "uninduced reporter light, run 1, well a": 9250, "activity call": "inactive"}
{"gene": "wun (GeneID 35966)", "dsRNA": "DRSC07719", "induced reporter light, run 1, well a": 1.99e5, "induced reporter light, run 1, well b": 2.15e5, "control promoter light, run 1, well a": 1.64e5, "control promoter light, run 1, well b": 1.27e5, "uninduced reporter light, run 1, well a": 17110, "activity call": "inactive"}
{"gene": "AlaRS (GeneID 34156)", "dsRNA": "DRSC01851", "induced reporter light, run 1, well a": 58445, "induced reporter light, run 1, well b": 57345, "control promoter light, run 1, well a": 46540, "control promoter light, run 1, well b": 62930, "uninduced reporter light, run 1, well a": 5665, "activity call": "inactive"}
{"gene": "Bap60 (GeneID 32268)", "dsRNA": "DRSC19337", "induced reporter light, run 1, well a": 45765, "induced reporter light, run 1, well b": 42115, "control promoter light, run 1, well a": 48005, "control promoter light, run 1, well b": 35610, "uninduced reporter light, run 1, well a": 4410, "activity call": "inactive"}
{"gene": "CG7369 (GeneID 2768961)", "dsRNA": "DRSC11822", "induced reporter light, run 1, well a": 84765, "induced reporter light, run 1, well b": 98820, "control promoter light, run 1, well a": 52815, "control promoter light, run 1, well b": 51545, "uninduced reporter light, run 1, well a": 8060, "activity call": "inactive"}
{"gene": "fru (GeneID 42226)", "dsRNA": "DRSC16951", "induced reporter light, run 1, well a": 16815, "induced reporter light, run 1, well b": 16680, "control promoter light, run 1, well a": 20420, "control promoter light, run 1, well b": 21325, "uninduced reporter light, run 1, well a": 5665, "activity call": "inactive"}
{"gene": "fru (GeneID 42226)", "dsRNA": "DRSC16952", "induced reporter light, run 1, well a": 2.19e5, "induced reporter light, run 1, well b": 2.14e5, "control promoter light, run 1, well a": 2.18e5, "control promoter light, run 1, well b": 2.66e5, "uninduced reporter light, run 1, well a": 14388, "activity call": "inactive"}
{"gene": "fru (GeneID 42226)", "dsRNA": "DRSC16953", "induced reporter light, run 1, well a": 2.05e5, "induced reporter light, run 1, well b": 1.71e5, "control promoter light, run 1, well a": 1.80e5, "control promoter light, run 1, well b": 1.66e5, "uninduced reporter light, run 1, well a": 12355, "activity call": "inactive"}
{"gene": "fru (GeneID 42226)", "dsRNA": "DRSC21600", "activity call": "inactive"}
{"gene": "eIF2D (GeneID 64874)", "dsRNA": "DRSC13916", "induced reporter light, run 1, well a": 2.23e5, "induced reporter light, run 1, well b": 2.14e5, "control promoter light, run 1, well a": 2.25e5, "control promoter light, run 1, well b": 2.22e5, "uninduced reporter light, run 1, well a": 15310, "activity call": "inactive"}

Next part; the last 2 above are carried over.
{"gene": "fru (GeneID 42226)", "dsRNA": "DRSC21600", "activity call": "inactive"}
{"gene": "eIF2D (GeneID 64874)", "dsRNA": "DRSC13916", "induced reporter light, run 1, well a": 2.23e5, "induced reporter light, run 1, well b": 2.14e5, "control promoter light, run 1, well a": 2.25e5, "control promoter light, run 1, well b": 2.22e5, "uninduced reporter light, run 1, well a": 15310, "activity call": "inactive"}
{"gene": "Ets96B (GeneID 42952)", "dsRNA": "DRSC16127", "induced reporter light, run 1, well a": 1.46e5, "induced reporter light, run 1, well b": 1.36e5, "control promoter light, run 1, well a": 1.59e5, "control promoter light, run 1, well b": 1.28e5, "uninduced reporter light, run 1, well a": 10520, "activity call": "inactive"}
{"gene": "Nelf-A (GeneID 42520)", "dsRNA": "DRSC15903", "induced reporter light, run 1, well a": 1.48e5, "induced reporter light, run 1, well b": 1.82e5, "control promoter light, run 1, well a": 2.24e5, "control promoter light, run 1, well b": 2.25e5, "uninduced reporter light, run 1, well a": 13635, "activity call": "inactive"}
{"gene": "Lap1 (GeneID 36670)", "dsRNA": "DRSC07454", "induced reporter light, run 1, well a": 86225, "induced reporter light, run 1, well b": 1.00e5, "control promoter light, run 1, well a": 1.20e5, "control promoter light, run 1, well b": 1.20e5, "uninduced reporter light, run 1, well a": 9090, "activity call": "inactive"}
{"gene": "Ip259 (GeneID 34419)", "dsRNA": "DRSC03352", "induced reporter light, run 1, well a": 2.00e5, "induced reporter light, run 1, well b": 2.12e5, "control promoter light, run 1, well a": 1.47e5, "control promoter light, run 1, well b": 1.97e5, "uninduced reporter light, run 1, well a": 14475, "activity call": "inactive"}
{"gene": "CG13133 (GeneID 34342)", "dsRNA": "DRSC02230", "induced reporter light, run 1, well a": 1.10e5, "induced reporter light, run 1, well b": 1.80e5, "control promoter light, run 1, well a": 88915, "control promoter light, run 1, well b": 1.25e5, "uninduced reporter light, run 1, well a": 18430, "activity call": "inactive"}
{"gene": "gzl (GeneID 40791)", "dsRNA": "DRSC12517", "induced reporter light, run 1, well a": 1.51e5, "induced reporter light, run 1, well b": 1.83e5, "control promoter light, run 1, well a": 1.39e5, "control promoter light, run 1, well b": 1.34e5, "uninduced reporter light, run 1, well a": 11695, "activity call": "inactive"}
